Where “and” joins values, the source holds several entries; their conditions need not be identical. Equal values may be shown once. This list was built around the results that the source calls inconclusive (neither active nor inactive); the mix of calls is not that of the screen. Potencies beside an inconclusive call are fits to weak or partial responses and may not hold up. Calls of active or inactive are those of the source. How the source made its calls: active means hit-call score of the fitted dose curve at least 0.9, where 1 is the maximum; inconclusive means response in the unintended direction; inactive means score below 0.9.
experiment: CCTE_Shafer_MEA_acute_AB: CCTE's Alamar Blue Assay for Cytotoxicity in the Neural Acute Assay, Shafer Lab (AID 2284069);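 further: active compounds lower the viability signal compared with DMSO wells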
Procedure, shortened: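 Resazurin reduction (CellTiter Blue, 1:6 in fresh medium) read at ex 544/em 590 nm marks viability loss relative to DMSO. Cells: primary rat cortical neuron networks on microelectrode arrays, treated after baseline recording at 13 or 15 days in vitro.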

Compound | AC50 | outcome
Oc1ccccc1Cc1ccccc1O | inconclusive: 15 µM | 
COCCc1ccc(OCC(O)CNC(C)C)cc1 (stereo unspecified) | inconclusive: 15 µM | 
CCc1cc(C2=C(C(=O)O)N(c3ccccc3C(F)(F)F)S(=O)(=O)c3ccccc32)cc2c1OCO2 |  | inactive
CC(=O)C(C)=CC1C(C)=CCCC1(C)C (stereo unspecified) | inconclusive: 20 µM | 
CC[Si](OC(C)=O)(OC(C)=O)OC(C)=O | inconclusive: 15 µM | 
CCOC(=O)C(C#N)=C(c1ccccc1)c1ccccc1 | inconclusive: 15 µM | 
C=CCOC(=O)CCC1CCCCC1 | inconclusive: 15 µM | 
CCCCC(CC)COP(=O)(OCC(CC)CCCC)OCC(CC)CCCC (stereo unspecified) | inconclusive: 20 µM | 
C=CCOC(Cn1ccnc1)c1ccc(Cl)cc1Cl (stereo unspecified) |  | inactive
CC(C)CCCC(C)(C)O | inconclusive: 15 µM | 
CCCCCCCCCCCCc1ccccc1 |  | inactive
CCCCC(CC)COC(=O)c1ccccc1O (stereo unspecified) | inconclusive: 7.5 µM | 
CCCCC(CC)COCC1CO1 (stereo unspecified) | inconclusive: 0.37 µM | 
CCCOc1sc(C(=O)N2CCC(c3cc(CN)ccc3F)CC2)c(C)c1Br | inconclusive: 0.00131 µM | 
CCn1cc(C(=O)O)c(=O)c2ccc(C)nc21 | inconclusive: 15 µM | 
CCCC(C)C(=O)OCC (stereo unspecified) | inconclusive: 15 µM | 

experiment: CCTE_Shafer_MEA_dev_AB: CCTE's Alamar Blue Assay for Cytotoxicity in the Neural Network Formation Assay, Shafer Lab (AID 2284083);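 further: resazurin reduction fluorescence as viability of cultured neurons; twelve days of exposure from plating with re-dosing on DIV 5 and 9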
Procedure, shortened: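 Resazurin fluorescence, relative to DMSO, gauges viability after twelve days of exposure that began at plating of rat cortical neurons (1.5 x 10^5 cells/well, 48-well MEA); treatment renewed with full medium exchange on DIV 5 and 9.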

Compound | outcome | AC50
CCCCC(CC)CN1C(=O)C2C3C=CC(C3)C2C1=O (stereo unspecified) | inactive | 
FC(F)(F)C(F)(F)C(F)(F)C(F)(F)C(F)(F)C(F)(F)C(F)(F)CCI |  | inconclusive: 1.58 µM
O=C1CCC(N2C(=O)c3ccccc3C2=O)C(=O)N1 (stereo unspecified) |  | inconclusive: 15 µM
O=C(C=C(O)C(F)(F)F)C(F)(F)F |  | inconclusive: 15 µM
Cn1cc[nH]c1=S | inactive | 
OCC(F)(F)C(F)(F)C(F)(F)CO |  | inconclusive: 15 µM
O=C(O)C(F)(F)C(F)(F)C(F)F |  | inconclusive: 15 µM
Nc1nc2ncc(CNc3ccc(C(=O)N[C@@H](CCC(=O)O)C(=O)O)cc3)nc2c(=O)[nH]1 |  | inconclusive: 10 µM
O=S(=O)(O)CCC(F)(F)C(F)(F)C(F)(F)C(F)(F)F |  | inconclusive: 3.75 µM
CN1C(=O)CC[C@H]1c1cccnc1 | inactive | 
O=C(O)C(F)(F)C(F)(F)C(F)(F)C(F)(F)C(F)(F)C(F)(F)C(F)(F)C(F)(F)Cl |  | inconclusive: 15 µM
O=C1O[C@H]([C@@H](O)CO)C(O)=C1O | inactive | 
O=C1NC(=O)C(c2ccccc2)(c2ccccc2)N1 |  | inconclusive: 0.12 µM
Oc1c(Cl)cc(Cl)c(Cl)c1Cc1c(O)c(Cl)cc(Cl)c1Cl |  | active: 8.76 µM and active: 3.54 µM
N#Cc1ccc(CC(=NNC(=O)Nc2ccc(OC(F)(F)F)cc2)c2cccc(C(F)(F)F)c2)cc1 | inactive | 

Shown comma-delimited: part of the list above.
Compound,outcome,AC50
CCCCC(CC)CN1C(=O)C2C3C=CC(C3)C2C1=O (stereo unspecified),inactive,
Cn1cc[nH]c1=S,inactive,

experiment: CCTE_Shafer_MEA_acute_LDH: CCTE's Lactate Dehydrogenase Assay for Cytotoxicity in the Neural Acute Assay, Shafer Lab (AID 2284086);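 further: active means LDH release rises above DMSO vehicle level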
Procedure, shortened: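 Cytotoxicity readout: spectrophotometric LDH activity in supernatant of rat primary cortical neurons, post-plating day 13 or 15, sampled after 40 min compound exposure; signal gain relative to DMSO baseline.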

Compound | AC50 | outcome
CCCCN(CCO)CCO | inconclusive: 0.003 µM | 
Oc1ccccc1Cc1ccccc1O |  | inactive
CN(C)C=O | inconclusive: 20 µM | 
CC(=O)C(C)=CC1C(C)=CCCC1(C)C (stereo unspecified) | inconclusive: 20 µM | 
CC[Si](OC(C)=O)(OC(C)=O)OC(C)=O |  | inactive
CCOC(=O)C(C#N)=C(c1ccccc1)c1ccccc1 | inconclusive: 15 µM | 
Nc1nc(N)c2nc(CNc3ccc(C(=O)N[C@@H](CCC(=O)O)C(=O)O)cc3)cnc2n1 | inconclusive: 20 µM | 
C=CCOC(=O)CCC1CCCCC1 |  | inactive
Nc1ccccc1N |  | inactive
CN1C(=O)CC[C@H]1c1cccnc1 | inconclusive: 20 µM | 
CC(C)CCCC(C)(C)O | inconclusive: 15 µM | 
CCc1ccc(CCOc2ccc(CC3SC(=O)NC3=O)cc2)nc1 (stereo unspecified) | inconclusive: 20 µM | 
COc1cc(C(C)C)c2c(c1)S(=O)(=O)N(COc1cc(=O)n3cccc(OCCN4CCCCC4)c3n1)C2=O | inconclusive: 5 µM | 
O=C1OC(c2ccc(O)cc2)(c2ccc(O)cc2)c2ccccc21 | inconclusive: 20 µM | 
CCn1cc(C(=O)O)c(=O)c2ccc(C)nc21 |  | inactive

Reference: PubChem BioAssay (EPA / NIEHS)
